# According to the supplement of paper PMC3334620:
# Over roughly 33,000 sequences, “E-score (-0.5 to 0.5)” has its median near -0.0034; the highest 2% begin near 0.25. The list shows a part of the results.
# Target: T1, Yap3 (UniProt P38749)
# T1 sequence: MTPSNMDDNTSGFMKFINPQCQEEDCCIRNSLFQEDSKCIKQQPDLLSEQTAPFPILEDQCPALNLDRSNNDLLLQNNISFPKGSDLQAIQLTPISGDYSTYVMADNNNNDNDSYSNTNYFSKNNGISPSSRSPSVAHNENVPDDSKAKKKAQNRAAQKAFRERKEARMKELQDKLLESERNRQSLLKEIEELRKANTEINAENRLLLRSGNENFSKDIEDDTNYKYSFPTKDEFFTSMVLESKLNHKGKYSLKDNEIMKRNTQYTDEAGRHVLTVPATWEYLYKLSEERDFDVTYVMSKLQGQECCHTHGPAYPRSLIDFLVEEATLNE
# Test: PBM E-score (8-mer binding enrichment) (E-score (-0.5 to 0.5)); higher = stronger / more preferred TF binding
# Conditions: protein concentration: 100 nM; construct: GST-full length
# Procedure, shortened: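 Universal all-10-mer Agilent arrays, double-stranded by primer extension on fresh or once-stripped slides, were probed with about 100-200 nM GST-tagged yeast transcription factors made by PURExpress. Fluorescent anti-GST detected bound protein, and masliner normalised the scans. E-scores from the Universal PBM Analysis Suite were given to each ungapped eight-base word pooled with its reverse complement.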
row,Sequence,PBM E-score
1,GATGCTTA,-0.0189
2,AGTCAACC,-0.105
3,GGCATTAA,0.0633
4,GGCTGCAC,-0.206
5,GTGGGTAA,-0.0064
6,ACTGAAGT,0.0602
7,GACAGGCA,-0.0173
8,ATTCGATC,0.0899
9,GGTATAGA,0.004
10,CACGCGCC,0.0151
11,AAAGTATT,0.187
12,CGGTGTAA,-0.088
13,GAGCAGGC,-0.199
14,AGCCCCGA,-0.224
15,TAGGCCAA,-0.0211
16,ATCATAAG,0.247
17,ATCCAATC,-0.0624
18,GAGTCCCC,-0.429
19,ACTTAGAA,0.0127
20,AGCACGGC,-0.11
21,ACAGGAGT,-0.0338
22,TACGCTGA,0.156
23,ATGCAAAC,0.0275
24,ATTGACGA,0.135
25,GTCAGAGA,-0.225

row,Sequence,PBM E-score
1,TTATGGAA,0.0926
2,ACTTTTAC,0.243
3,CAGCCTGA,-0.138
4,CCCATAAA,-0.168
5,AAACAATG,0.138
6,AATAAATG,0.216
7,CGCCTGTA,-0.104
8,ATCCGGAG,0.0875
9,ACATGCAT,0.188
10,CCCACCGG,-0.36
11,GTGGATGA,0.0954
12,GTGGGCTA,-0.0311
13,CATGTCTA,-0.0383
14,AGAAGTCG,0.0232
15,AATGGTGA,0.0242
16,GCCATAGA,-0.0632
17,AGAAATAA,0.228
18,CGGCGAAA,0.23
19,AATCTTAA,0.0551
20,CGGGCTGA,-0.166
21,AGACTTAA,-0.0445
22,ATCAAAGC,0.115
23,TCGGCCGA,0.2
24,ACAGCTGT,0.0872
25,TAGCGAAA,0.146

row,Sequence,PBM E-score
1,TAGCTACA,0.125
2,CAAGAGAC,-0.0846
3,ATCGCTGA,0.198
4,CGCGGCGC,0.106
5,ACATAGAT,0.082
6,CCCCTTTC,-0.222
7,CCCCACAC,-0.147
8,TCACCGGA,0.145
9,GGAGAAAC,0.116
10,ATGTGATG,-0.0625
11,CTACCTCC,-0.0834
12,AAGGAGGG,-0.0663
13,CAAACGGA,0.0334
14,ACACTGCG,0.0965
15,ACCCATAC,0.00765
16,ACTGCCCT,-0.127
17,AAAAAGGC,0.0304
18,AAAGTGCA,0.0828
19,AACTGAGT,-0.0529
20,CCTCCTCA,-0.255
21,TCCAGACA,-0.102
22,GACTTGTA,-0.164
23,AGCCCAGG,-0.336
24,GAGACGCC,-0.105
25,GTAACTCA,-0.212

row,Sequence,PBM E-score
1,AGACACGC,-0.135
2,AATGGTAT,0.167
3,GTCATGAC,0.138
4,ACCAAATG,0.0905
5,CGAAACAA,0.194
6,ACCCTAGT,-0.0742
7,GAAACTCA,-0.0239
8,GCAATCCA,0.0882
9,AAGAGCGA,-0.108
10,CGGATAAG,0.144
11,AATCTCGA,0.00168
12,CGTGGCCC,-0.286
13,ACCATATA,0.285
14,GGGGTGCA,-0.0791
15,CGACTGCG,-0.123
16,ACTCGGAA,0.156
17,TATCGGCA,0.0304
18,CCCCAATC,-0.0938
19,TTCAGCAA,0.193
20,ACAACCGC,0.116
21,CGTCGCTC,-0.18
22,AATTTGAT,0.0887
23,ACCGCTCA,-0.0569
24,GGGCCCAC,-0.121
25,ATTTCGAC,-0.0412

row,Sequence,PBM E-score
1,GCAACAGC,-0.178
2,CGGGAGTA,-0.0249
3,CGAGACAG,0.0404
4,ACGTTGTC,-0.014
5,ATGAGTAG,0.195
6,AAGCACGC,-0.0279
7,GAAAGTTA,0.124
8,AATAAACT,0.0576
9,GCCCTAGA,-0.25
10,CATGAGCG,0.0727
11,GACCTATC,-0.039
12,TCCTACAA,0.0495
13,AGTCGCAG,-0.0563
14,TGCCCACA,-0.204
15,GGCCACTA,-0.0853
16,CAACCCAA,-0.0163
17,GCCCCGTA,-0.189
18,ACCAGGCT,-0.128
19,GGTTGGAA,-0.058
20,ATGCACGC,-0.0147
21,CGTACAAC,0.0189
22,ACATTTCG,0.0557
23,GTCCTGCA,-0.215
24,ATGGTCCG,0.0335
25,CCCCCCGA,-0.369

row,Sequence,PBM E-score
1,CGGTGTTA,0.015
2,ATGCGGGC,0.00517
3,ACATCAGT,0.105
4,CAAGAAAC,0.197
5,AAAACGCT,-0.112
6,AGGAATTC,-0.0343
7,CAACTATA,0.0103
8,ACCGTCCA,-0.0152
9,ACGGGGTG,-0.00572
10,CCTTCACC,-0.104
11,AGATTGGG,0.101
12,TGAATTAA,0.234
13,ACGTCAAT,0.0771
14,AAAATTTC,-0.00715
15,CAACGGTG,-0.243
16,ATGCAGCA,0.0337
17,CACCGCGA,-0.00404
18,ATTACCCA,0.233
19,CGATTTAC,0.0559
20,AATGTTTA,0.013
21,TCTTATCA,0.126
22,GATCGCCC,-0.164
23,ACTAGGTC,-0.0366
24,ACAAGCTA,0.0336
25,CGACGGCC,-0.0375

# Retrieved one by one from the list above:
row,Sequence,PBM E-score
22,GATCGCCC,-0.164
1,CGGTGTTA,0.015

# Continued:

row,Sequence,PBM E-score
1,ACGAGCCG,-0.0182
2,CCACCATC,-0.238
3,AAACTCAG,0.0292
4,CGCCCGAA,-0.0199
5,ATTCCATA,0.101
6,AAAACACA,0.109
7,AAAAAAAG,0.153
8,TGGGCTAA,0.0114
9,AACGGTCG,0.105
10,CCTCGGCG,0.0248
11,AGGAGCCC,-0.164
12,AAGTCGAC,0.189
13,CTTCAACA,0.166
14,GATGAAAA,0.111
15,AGCAATTC,0.134
16,AGGGCGCG,-0.195
17,AAATGCTC,0.11
18,CTTCTTAA,0.217
19,CCTCAGTC,-0.155
20,TAGCCCTA,-0.125
21,AAGATCAG,-0.158
22,ACTCGGTA,0.0865
23,CTCTGATA,-0.00147
24,CGCGCAGC,-0.194
25,CCTATTCG,-0.126

# As entered above.
# Entry for CAACGGTG under PBM E-score: -0.243
# Entry for ACCAAATG under PBM E-score: 0.0905
# Entry for ACTAGGTC under PBM E-score: -0.0366
# Entry for AACTGAGT under PBM E-score: -0.0529
# Entry for AGTCGCAG under PBM E-score: -0.0563

# Additional records follow:

row,Sequence,PBM E-score
1,AATCATAC,0.168
2,AACACGCT,0.147
3,ACCGTCTA,-0.0863
4,AAAGTCGA,0.0242
5,GAGCACGC,-0.299
6,CTTTTCTC,0.0296
7,ACTCTAGC,-0.119
8,CTGTGTCC,-0.0508
9,CGACTATC,-0.135
10,ATAGAAAT,0.226
11,ATCCCCAA,0.0394
12,CCTGGTCC,-0.108
13,TAATGAGA,0.164
14,CAAGTCTA,-0.096
15,TAGGGCGA,-0.0266
16,GGCTCTCA,-0.204
17,CATACTTA,-0.0208
18,AGTGATTA,0.222
19,AATCTGAC,0.0221
20,CCCTCCGA,-0.242
21,AACACCCC,-0.0613
22,AAACCGGA,0.0608
23,AACCTTTA,-0.0204
24,CCGTCCTC,-0.189
25,CTTACGGC,-0.0983

row,Sequence,PBM E-score
1,CTGGCGCA,-0.29
2,GCTTTGCA,-0.15
3,GACGAGTA,0.0381
4,AGAGTTAT,0.0954
5,GACACAGC,0.0142
6,CCCCCGCC,-0.395
7,GTGCCCAC,-0.126
8,CCAAGTAA,0.159
9,CTTTTAGA,0.123
10,ATAGTATG,0.134
11,ATAACCTC,0.0424
12,CAGTGTAG,0.0542
13,ACTTACGA,0.315
14,AGGGTGGA,-0.0977
15,GAAAAACA,0.094
16,GGAACTAC,-0.162
17,CGGGAAGC,-0.0211
18,ACCTCAAA,0.129
19,CCCTGGCA,-0.15
